Experimental data: PubChem BioAssay (NCATS)
The shares of active, inactive and inconclusive entries below differ from those in the screen. Potencies of inconclusive entries are doubtful fits and often do not repeat. Activity calls are given as the source filed them. The call rests on the fitted dose curve; in most records, active means well fitted curve in the direction sought with a large enough effect; inconclusive means small, poorly fitted or top-dose-only effect, or another doubt; inactive means no such curve, though single readings can be large; an effect the other way counts as inactive or inconclusive.

Chains of the proteins cited; added tags and fusions are not shown.
UniProt P21728, whole entry, looked up: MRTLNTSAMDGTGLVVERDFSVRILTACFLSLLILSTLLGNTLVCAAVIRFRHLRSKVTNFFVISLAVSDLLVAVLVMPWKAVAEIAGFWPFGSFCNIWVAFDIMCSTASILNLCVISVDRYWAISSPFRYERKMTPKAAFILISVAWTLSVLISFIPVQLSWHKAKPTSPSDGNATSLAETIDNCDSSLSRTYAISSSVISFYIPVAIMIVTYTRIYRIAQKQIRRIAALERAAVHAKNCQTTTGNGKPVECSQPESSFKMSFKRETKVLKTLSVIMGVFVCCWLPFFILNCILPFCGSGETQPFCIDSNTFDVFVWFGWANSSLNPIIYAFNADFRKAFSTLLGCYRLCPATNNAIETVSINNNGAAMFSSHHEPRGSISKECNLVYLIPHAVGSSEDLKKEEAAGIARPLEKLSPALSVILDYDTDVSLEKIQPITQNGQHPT

target: D(1A) dopamine receptor (Homo sapiens) (UniProt P21728); assay: HTS Assay for Allosteric Agonists of the Human D1 Dopamine Receptor: Primary Screen for Agonists (AID 488981); conditions: Inducible HEK293 T-REx D1 cells, calcium-flux fluorescence, 180 s kinetic
Text: Dopamine receptors (DARs) are involved in the etiology and/or therapy of a number of neuropsychiatric and endocrine disorders. For instance, all receptor-based antiparkinsonian drugs work via stimulating the […] DAR subtype whereas all FDA-approved antipsychotic agents are antagonists of this receptor. […] There are three different types of allosteric modulators that we are seeking, two of which will stimulate or augment receptor signaling, allosteric agonists and potentiators, while the third, allosteric antagonists, will attenuate receptor signaling. The present primary screening assay measures compound agonism by tracking calcium flux in a […], inducible Hek293 Trex D1 cell line.
Freshly passaged cells are plated in 1536 well black, clear bottom plates at a density of 4000 cells/well in 3 ul of complete media containing 1x tetracycline inducer. After an overnight incubation at 30 C in 5% CO2, cells are loaded with 2 ul of the no wash Calcium Assay Kit (ABD Bioquest) and incubated at room temperature for 30 to 90 minutes. A 10 cycle (1 second/cycle) baseline measurement is taken and then the FDSS online 1536 pintool delivers 23 nl of compound library (as well as dopamine controls) to the plate. The plate is measured for kinetically at 1 cycle/sec for 180 seconds and is considered to be the agonist portion of the assay (eg, compounds which activate a positive calcium response during this portion are flagged as potential agonists). Following the 180 second read, 1 ul of an EC20 of dopamine is delivered by an onboard pipette head. Measurements are taken kinetically for an additional 180 seconds.
Potency means the concentration at half of the fitted maximal effect.

Row | Compound | Potency
1 | O=C(CCCN1CCC(O)(c2cccc(C(F)(F)F)c2)CC1)c1ccc(F)cc1 | inconclusive: 22.4 µM [activator, single point]
2 | COCC(=O)O[C@]1(CCN(C)CCCc2nc3ccccc3[nH]2)CCc2cc(F)ccc2[C@@H]1C(C)C | inconclusive: 12.6 µM [activator, partial curve]
3 | OCCN1CCN(CCCN2c3ccccc3Sc3ccc(Cl)cc32)CC1 | inconclusive: 17.8 µM [activator, single point]
4 | CC(=O)[C@]1(O)Cc2c(O)c3c(c(O)c2[C@@H](O[C@H]2C[C@H](N)[C@H](O)[C@H](C)O2)C1)C(=O)c1ccccc1C3=O | active: 11.2 µM

target: D(1A) dopamine receptor (Homo sapiens) (UniProt P21728); assay: HTS Assay for Allosteric Agonists of the Human D1 Dopamine Receptor: Primary Screen for Potentiators (AID 488982); conditions: HEK293 T-REx D1 inducible cells, calcium flux, kinetic fluorescence
Procedure, shortened: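 Tetracycline-induced HEK293 Trex D1 cells with forced coupling to calcium, loaded with no-wash calcium dye; kinetic fluorescence read 180 s after compound addition for agonism, then a further 180 s after an EC20 dopamine challenge for potentiation.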

Row | Compound | Potency
5 | O=C(c1ccc(OCCN2CCCCC2)cc1)c1c(-c2ccc(O)cc2)sc2cc(O)ccc12 | inconclusive: 0.231 µM [activator, partial curve]
6 | CC(=O)[C@]1(O)Cc2c(O)c3c(c(O)c2[C@@H](O[C@H]2C[C@H](N)[C@H](O)[C@H](C)O2)C1)C(=O)c1ccccc1C3=O | active: 2.91 µM
7 | CCOC(=O)C1=C(C)NC(C)=C(C(=O)OC)C1c1cccc([N+](=O)[O-])c1 (stereo not given) | inconclusive: 6.51 µM [activator, single point]

target: D(1A) dopamine receptor (Homo sapiens) (UniProt P21728); assay: HTS Assay for Allosteric Agonists of the Human D1 Dopamine Receptor: Primary Screen for Antagonists (AID 488983); conditions: D1 receptor cell assay, antagonist mode, qHTS titration; series mostly up to 41.8 µM; activity change, negative = inhibition: at the top concentration;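 further: calcium flux response to an EC80 dopamine challenge measured with no-wash dye; nearly all actives have a fitted effect of over 65% in size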; on activity change, negative = inhibition: on the % scale 0 is the no-effect control and ±100 the full control effect
Procedure, shortened: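 Tetracycline-induced HEK293 T-REx cells expressing force-coupled D1 were plated overnight at 30 C, dye-loaded for calcium, and read kinetically. Compounds were pinned in, then an EC80 dopamine challenge followed after 180 s to reveal antagonism.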

Row | Compound | Potency | activity change, negative = inhibition
8 | CC(C(O)c1ccc(O)cc1)N1CCC(Cc2ccccc2)CC1 (stereo not given) | inconclusive: 0.282 µM [inhibitor, full curve] | 
9 | COc1cc2c(cc1OC)-c1cc(=Nc3c(C)cc(C)cc3C)n(C)c(=O)n1CC2 | inconclusive: 17.8 µM [activator, partial curve] | 
10 | COC(=O)[C@@H]1[C@H]2C[C@H]3c4[nH]c5ccccc5c4CCN3C[C@@H]2CC[C@@H]1O | active: 17.8 µM | 
11 | CC(CN1c2ccccc2Sc2ccccc21)N(C)C (stereo not given) | active: 10 µM | 
12 | CC(C[N+](C)(C)C)OC(N)=O (stereo not given) |  | inactive: -5.56%
13 | CNCCC=C1c2ccccc2CCc2ccccc21 | inconclusive: 0.355 µM [inhibitor, full curve] | 
14 | CNCCC(Oc1ccccc1OC)c1ccccc1 (stereo not given) | inconclusive: 14.1 µM [inhibitor, single point] | 
15 | O=C(CCCN1CCC(O)(c2cccc(C(F)(F)F)c2)CC1)c1ccc(F)cc1 | inconclusive: 0.447 µM [inhibitor, full curve] | 
16 | CC(C)C[C@H](NC(=O)[C@@H](O)[C@H](N)Cc1ccccc1)C(=O)O |  | inactive: 3.57%
17 | CCN(CC)CCCN(c1ccccc1)C1Cc2ccccc2C1 | inconclusive: 31.6 µM [inhibitor, single point] | 
18 | COCC(=O)O[C@]1(CCN(C)CCCc2nc3ccccc3[nH]2)CCc2cc(F)ccc2[C@@H]1C(C)C | inconclusive: 12.6 µM [inhibitor, single point] | 
19 | CC/C(=C(\c1ccccc1)c1ccc(OCCN(C)C)cc1)c1ccccc1 |  | inactive: -27.2%
20 | OCCN1CCN(CCCN2c3ccccc3Sc3ccc(Cl)cc32)CC1 | active: 0.794 µM | 
21 | OCCN1CCN(CCCN2c3ccccc3C=Cc3ccccc32)CC1 | active: 11.2 µM | 
22 | CC(=O)[C@]1(O)Cc2c(O)c3c(c(O)c2[C@@H](O[C@H]2C[C@H](N)[C@H](O)[C@H](C)O2)C1)C(=O)c1ccccc1C3=O | inconclusive: 11.2 µM [activator, single point] | 
23 | CCOC(=O)C1=C(C)NC(C)=C(C(=O)OC)C1c1cccc([N+](=O)[O-])c1 (stereo not given) | inconclusive: 15.8 µM [inhibitor, partial curve, poor fit] | 
24 | O=C1NCN(c2ccccc2)C12CCN(CCCC(c1ccc(F)cc1)c1ccc(F)cc1)CC2 | inconclusive: 5.01 µM [inhibitor, partial curve] | 
25 | O=c1n(CCCN2CCN(c3cccc(Cl)c3)CC2)nc2ccccn12 | active: 11.2 µM | 

An excerpt of these results, as a markdown table:

| Row | Compound | Potency | activity change, negative = inhibition |
| --- | --- | --- | --- |
| 10 | COC(=O)[C@@H]1[C@H]2C[C@H]3c4[nH]c5ccccc5c4CCN3C[C@@H]2CC[C@@H]1O | active: 17.8 µM |  |
| 12 | CC(C[N+](C)(C)C)OC(N)=O (stereo not given) |  | inactive: -5.56% |
| 23 | CCOC(=O)C1=C(C)NC(C)=C(C(=O)OC)C1c1cccc([N+](=O)[O-])c1 (stereo not given) | inconclusive: 15.8 µM [inhibitor, partial curve, poor fit] |  |
| 24 | O=C1NCN(c2ccccc2)C12CCN(CCCC(c1ccc(F)cc1)c1ccc(F)cc1)CC2 | inconclusive: 5.01 µM [inhibitor, partial curve] |  |
| 25 | O=c1n(CCCN2CCN(c3cccc(Cl)c3)CC2)nc2ccccn12 | active: 11.2 µM |  |
